Results published in the supplement of paper PMC10849652.
This is one part of the list.

Protein sequences, listed by entry. Tags and fused reporters are not part of them. Lines headed by an entry give the natural chain unless they say otherwise; changes in a name come on top.
UniProt P24311, whole entry, looked up: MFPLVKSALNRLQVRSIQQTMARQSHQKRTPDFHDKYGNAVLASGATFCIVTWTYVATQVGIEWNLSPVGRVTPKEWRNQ
UniProt Q9P003: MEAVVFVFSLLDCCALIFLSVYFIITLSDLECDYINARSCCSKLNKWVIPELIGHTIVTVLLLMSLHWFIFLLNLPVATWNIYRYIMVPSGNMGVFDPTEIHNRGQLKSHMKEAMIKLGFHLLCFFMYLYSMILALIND
UniProt Q14061: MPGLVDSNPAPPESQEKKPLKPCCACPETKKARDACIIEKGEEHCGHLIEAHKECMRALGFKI
UniProt Q9H3G5: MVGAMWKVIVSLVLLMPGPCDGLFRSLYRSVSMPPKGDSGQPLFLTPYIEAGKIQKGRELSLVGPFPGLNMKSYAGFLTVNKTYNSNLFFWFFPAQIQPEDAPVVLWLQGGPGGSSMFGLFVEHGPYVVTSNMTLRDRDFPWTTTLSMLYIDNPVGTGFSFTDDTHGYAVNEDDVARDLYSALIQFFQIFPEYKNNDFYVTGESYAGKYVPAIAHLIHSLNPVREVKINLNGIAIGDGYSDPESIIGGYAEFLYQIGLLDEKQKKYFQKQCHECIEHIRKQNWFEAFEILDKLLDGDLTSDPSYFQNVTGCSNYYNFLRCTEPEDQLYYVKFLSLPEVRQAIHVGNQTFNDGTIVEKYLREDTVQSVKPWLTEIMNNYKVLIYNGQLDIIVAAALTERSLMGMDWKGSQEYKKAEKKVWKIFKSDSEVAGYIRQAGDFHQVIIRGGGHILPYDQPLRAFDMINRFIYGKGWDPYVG
UniProt Q8NHY2, whole entry, looked up: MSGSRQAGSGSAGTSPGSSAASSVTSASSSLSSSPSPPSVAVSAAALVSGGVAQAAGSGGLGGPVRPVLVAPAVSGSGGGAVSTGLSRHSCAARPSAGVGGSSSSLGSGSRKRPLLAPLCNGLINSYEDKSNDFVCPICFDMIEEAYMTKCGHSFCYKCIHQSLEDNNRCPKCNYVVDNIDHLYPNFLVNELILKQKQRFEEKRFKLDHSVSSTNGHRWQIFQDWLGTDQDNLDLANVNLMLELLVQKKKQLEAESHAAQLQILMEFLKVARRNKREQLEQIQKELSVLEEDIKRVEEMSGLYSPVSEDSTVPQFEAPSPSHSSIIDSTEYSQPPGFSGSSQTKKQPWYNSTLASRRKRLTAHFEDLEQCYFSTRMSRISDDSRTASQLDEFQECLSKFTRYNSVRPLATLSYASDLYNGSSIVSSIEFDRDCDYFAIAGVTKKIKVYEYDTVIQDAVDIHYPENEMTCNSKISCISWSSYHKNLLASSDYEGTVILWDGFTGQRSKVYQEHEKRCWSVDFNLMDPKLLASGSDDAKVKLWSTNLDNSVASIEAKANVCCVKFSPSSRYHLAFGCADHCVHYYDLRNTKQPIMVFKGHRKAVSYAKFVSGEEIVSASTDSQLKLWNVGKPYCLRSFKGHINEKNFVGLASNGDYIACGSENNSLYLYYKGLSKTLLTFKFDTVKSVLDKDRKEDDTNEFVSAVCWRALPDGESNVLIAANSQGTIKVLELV
UniProt Q86VU5: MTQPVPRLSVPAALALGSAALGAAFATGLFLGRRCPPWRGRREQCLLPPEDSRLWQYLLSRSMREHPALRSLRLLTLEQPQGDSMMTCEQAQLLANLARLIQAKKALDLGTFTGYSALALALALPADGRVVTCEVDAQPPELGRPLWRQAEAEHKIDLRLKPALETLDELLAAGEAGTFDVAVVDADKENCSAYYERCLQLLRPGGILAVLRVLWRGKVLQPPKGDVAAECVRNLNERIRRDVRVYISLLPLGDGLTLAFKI
UniProt Q9BXS0: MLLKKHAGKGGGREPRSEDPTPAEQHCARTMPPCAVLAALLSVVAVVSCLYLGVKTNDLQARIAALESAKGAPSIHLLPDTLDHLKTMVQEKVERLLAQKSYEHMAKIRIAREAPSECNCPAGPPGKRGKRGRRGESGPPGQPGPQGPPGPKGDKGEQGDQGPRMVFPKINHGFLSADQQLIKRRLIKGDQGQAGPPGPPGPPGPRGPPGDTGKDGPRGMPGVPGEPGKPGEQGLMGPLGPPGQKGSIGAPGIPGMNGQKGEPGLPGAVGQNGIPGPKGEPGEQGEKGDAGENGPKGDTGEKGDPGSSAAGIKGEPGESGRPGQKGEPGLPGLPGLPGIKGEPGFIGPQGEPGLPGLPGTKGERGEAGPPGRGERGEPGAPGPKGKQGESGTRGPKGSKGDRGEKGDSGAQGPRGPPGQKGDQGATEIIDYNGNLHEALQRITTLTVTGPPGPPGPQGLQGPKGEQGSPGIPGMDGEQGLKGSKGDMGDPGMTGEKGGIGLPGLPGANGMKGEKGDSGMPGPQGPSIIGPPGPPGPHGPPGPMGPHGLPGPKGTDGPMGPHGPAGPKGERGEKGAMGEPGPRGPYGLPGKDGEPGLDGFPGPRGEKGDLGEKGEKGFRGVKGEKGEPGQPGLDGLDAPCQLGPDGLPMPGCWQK
UniProt Q96FN4: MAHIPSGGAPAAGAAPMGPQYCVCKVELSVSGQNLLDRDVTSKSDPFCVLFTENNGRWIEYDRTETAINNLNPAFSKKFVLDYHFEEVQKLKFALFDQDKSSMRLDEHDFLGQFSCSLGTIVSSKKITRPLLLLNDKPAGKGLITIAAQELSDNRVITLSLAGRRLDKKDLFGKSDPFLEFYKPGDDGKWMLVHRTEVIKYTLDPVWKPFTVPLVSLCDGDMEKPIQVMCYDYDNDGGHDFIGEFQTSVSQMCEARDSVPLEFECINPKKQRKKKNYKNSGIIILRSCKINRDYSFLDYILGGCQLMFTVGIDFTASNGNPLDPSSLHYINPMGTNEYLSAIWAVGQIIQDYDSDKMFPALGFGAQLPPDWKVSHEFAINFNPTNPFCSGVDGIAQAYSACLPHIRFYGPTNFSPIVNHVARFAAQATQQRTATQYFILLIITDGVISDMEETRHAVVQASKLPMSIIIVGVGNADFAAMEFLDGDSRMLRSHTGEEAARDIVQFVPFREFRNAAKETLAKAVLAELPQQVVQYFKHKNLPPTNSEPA
UniProt Q86YQ8: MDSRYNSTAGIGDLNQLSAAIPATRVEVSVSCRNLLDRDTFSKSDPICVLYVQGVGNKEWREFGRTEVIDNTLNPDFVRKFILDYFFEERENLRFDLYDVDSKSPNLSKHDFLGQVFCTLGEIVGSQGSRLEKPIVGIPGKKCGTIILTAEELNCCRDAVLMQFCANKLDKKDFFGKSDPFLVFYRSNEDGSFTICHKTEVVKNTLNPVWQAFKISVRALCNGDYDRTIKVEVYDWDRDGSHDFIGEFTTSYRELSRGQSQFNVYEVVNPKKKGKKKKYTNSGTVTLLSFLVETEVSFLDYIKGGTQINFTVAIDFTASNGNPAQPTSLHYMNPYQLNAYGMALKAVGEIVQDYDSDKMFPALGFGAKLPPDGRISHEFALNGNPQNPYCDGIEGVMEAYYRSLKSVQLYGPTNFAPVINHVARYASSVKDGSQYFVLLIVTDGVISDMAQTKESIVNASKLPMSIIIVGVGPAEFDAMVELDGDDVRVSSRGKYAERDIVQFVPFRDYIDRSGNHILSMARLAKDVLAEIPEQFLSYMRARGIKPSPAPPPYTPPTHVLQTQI
UniProt O14810: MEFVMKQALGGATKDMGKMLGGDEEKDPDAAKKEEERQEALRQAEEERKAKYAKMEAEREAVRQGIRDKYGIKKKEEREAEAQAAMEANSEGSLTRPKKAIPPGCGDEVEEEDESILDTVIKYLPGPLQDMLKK
UniProt Q9UNS2: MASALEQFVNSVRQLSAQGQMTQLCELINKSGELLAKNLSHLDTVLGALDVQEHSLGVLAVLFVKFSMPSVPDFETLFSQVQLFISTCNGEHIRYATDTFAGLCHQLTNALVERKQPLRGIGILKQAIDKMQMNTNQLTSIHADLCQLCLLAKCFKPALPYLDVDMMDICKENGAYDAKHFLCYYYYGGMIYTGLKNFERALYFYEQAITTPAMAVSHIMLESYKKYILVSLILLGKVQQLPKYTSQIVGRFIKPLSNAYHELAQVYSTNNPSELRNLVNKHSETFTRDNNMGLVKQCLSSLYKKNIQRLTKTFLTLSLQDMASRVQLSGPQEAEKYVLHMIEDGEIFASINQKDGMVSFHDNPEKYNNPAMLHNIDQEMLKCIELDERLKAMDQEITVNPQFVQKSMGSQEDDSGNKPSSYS
UniProt Q9UI42: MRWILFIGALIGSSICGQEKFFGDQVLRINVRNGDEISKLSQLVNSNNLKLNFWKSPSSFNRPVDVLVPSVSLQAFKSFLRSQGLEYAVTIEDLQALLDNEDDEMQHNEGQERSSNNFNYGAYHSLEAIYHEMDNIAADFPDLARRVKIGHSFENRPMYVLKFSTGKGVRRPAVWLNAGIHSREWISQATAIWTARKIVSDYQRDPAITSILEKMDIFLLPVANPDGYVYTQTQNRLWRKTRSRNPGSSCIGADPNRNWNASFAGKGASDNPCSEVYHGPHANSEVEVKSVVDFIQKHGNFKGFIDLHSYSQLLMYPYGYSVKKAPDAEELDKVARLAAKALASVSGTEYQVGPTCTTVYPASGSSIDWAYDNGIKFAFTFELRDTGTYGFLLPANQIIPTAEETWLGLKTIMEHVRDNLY
UniProt Q9BU20: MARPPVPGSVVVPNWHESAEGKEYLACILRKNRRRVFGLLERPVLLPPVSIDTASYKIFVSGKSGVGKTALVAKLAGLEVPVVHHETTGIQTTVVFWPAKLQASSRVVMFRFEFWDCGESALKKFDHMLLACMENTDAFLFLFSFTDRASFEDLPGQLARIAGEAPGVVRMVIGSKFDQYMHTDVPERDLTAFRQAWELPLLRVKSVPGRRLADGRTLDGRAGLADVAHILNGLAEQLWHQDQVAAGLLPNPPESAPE
UniProt G9CGD6: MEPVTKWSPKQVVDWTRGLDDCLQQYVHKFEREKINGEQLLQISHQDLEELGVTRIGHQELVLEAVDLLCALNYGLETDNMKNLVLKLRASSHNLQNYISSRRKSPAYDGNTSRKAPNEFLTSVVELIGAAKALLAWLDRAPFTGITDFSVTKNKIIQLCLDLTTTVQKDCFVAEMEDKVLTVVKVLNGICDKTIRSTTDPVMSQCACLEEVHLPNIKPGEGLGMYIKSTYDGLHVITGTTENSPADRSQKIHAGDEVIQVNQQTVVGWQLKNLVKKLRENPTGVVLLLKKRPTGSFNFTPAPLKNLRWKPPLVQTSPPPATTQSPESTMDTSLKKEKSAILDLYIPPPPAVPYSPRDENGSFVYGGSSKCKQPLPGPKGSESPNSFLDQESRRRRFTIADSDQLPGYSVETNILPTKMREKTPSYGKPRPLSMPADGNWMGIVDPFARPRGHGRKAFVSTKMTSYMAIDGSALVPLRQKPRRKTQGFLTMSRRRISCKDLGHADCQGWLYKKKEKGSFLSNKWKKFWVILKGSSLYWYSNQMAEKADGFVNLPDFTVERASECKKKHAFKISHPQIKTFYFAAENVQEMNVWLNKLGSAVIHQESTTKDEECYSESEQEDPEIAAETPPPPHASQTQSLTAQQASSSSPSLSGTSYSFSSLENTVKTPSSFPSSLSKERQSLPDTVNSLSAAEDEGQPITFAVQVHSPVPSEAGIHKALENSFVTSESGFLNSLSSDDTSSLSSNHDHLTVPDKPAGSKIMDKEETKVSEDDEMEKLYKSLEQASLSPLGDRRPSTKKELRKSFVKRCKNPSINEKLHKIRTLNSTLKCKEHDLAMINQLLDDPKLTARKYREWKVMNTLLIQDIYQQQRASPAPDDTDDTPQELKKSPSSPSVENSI
UniProt Q5TA50: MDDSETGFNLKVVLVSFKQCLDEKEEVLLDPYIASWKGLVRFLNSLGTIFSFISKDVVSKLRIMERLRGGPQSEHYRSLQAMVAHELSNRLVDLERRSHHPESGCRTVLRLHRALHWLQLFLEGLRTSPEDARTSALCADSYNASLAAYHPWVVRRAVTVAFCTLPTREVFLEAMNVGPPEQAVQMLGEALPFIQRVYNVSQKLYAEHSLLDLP
UniProt Q8NE35: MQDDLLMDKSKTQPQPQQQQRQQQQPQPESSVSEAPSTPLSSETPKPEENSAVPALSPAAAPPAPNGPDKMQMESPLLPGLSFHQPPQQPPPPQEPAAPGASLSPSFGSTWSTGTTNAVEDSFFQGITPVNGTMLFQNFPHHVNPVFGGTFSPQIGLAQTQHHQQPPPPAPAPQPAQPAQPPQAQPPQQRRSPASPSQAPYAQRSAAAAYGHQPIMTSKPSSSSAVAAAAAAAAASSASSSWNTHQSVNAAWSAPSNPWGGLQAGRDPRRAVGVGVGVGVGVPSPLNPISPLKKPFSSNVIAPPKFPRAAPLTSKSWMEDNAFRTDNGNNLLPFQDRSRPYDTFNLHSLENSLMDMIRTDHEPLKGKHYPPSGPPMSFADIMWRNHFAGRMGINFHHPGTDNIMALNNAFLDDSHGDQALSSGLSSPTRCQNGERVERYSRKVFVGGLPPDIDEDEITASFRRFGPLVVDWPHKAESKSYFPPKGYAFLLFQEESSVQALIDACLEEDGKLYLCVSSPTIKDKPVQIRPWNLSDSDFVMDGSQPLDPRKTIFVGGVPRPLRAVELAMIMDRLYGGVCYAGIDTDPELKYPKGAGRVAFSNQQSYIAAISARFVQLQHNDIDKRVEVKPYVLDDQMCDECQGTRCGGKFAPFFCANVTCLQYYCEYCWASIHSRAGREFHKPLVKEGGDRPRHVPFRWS

Each target was assayed with CC[C@@H]1C(=O)N(C)c2cnc(Nc3ccc(C(=O)N[C@H]4CC[C@H](N5CCN(CC6CC6)CC5)CC4)cc3OC)nc2N1C(C)C [volasertib] (assay: log2 fold change, soluble protein after heating vs DMSO (PISA); higher = thermal stabilisation; K562 lysate, 10 uM; active = over 0.2 and 3.5 SD of the protein, either way, in both replicates (recomputed)).
Summary of the method: (§1)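 Values give the log-two fold change in thermal stability against solvent controls, from duplicates. Crude K562 extract at 1 mg/mL protein, made by dounce homogenisation in PBS pH 7.4 with 1 mM MgCl2, was treated with 10 μM compound for 30 min. After 3 min heating across 48°C-58°C, aliquots were pooled, adjusted to 0.5% NP-40 at 4°C and centrifuged at 21,000xg for 90 min. The supernatant was measured by TMTpro 16plex LC-MS/MS with channel sums equalised.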

Target | log2 fold change
COMMD3-BMI1 (UniProt R4GMX3) | inactive: -0.004
COX7B (UniProt P24311) | inactive: 0.004
CNNM2 (UniProt Q9H8M5) | inactive: -0.043
CNIH4 (UniProt Q9P003) | inactive: -0.077
COX17 (UniProt Q14061) | inactive: 0.056
CPVL (UniProt Q9H3G5) | inactive: 0.019
COP1 (UniProt Q8NHY2) | inactive: 0.012
COMTD1 (UniProt Q86VU5) | inactive: -0.059
COL25A1 (UniProt Q9BXS0) | inactive: 0.228
COL14A1 (UniProt Q05707) | inactive: -0.049
CPNE2 (UniProt Q96FN4) | inactive: -0.076
COL12A1 (UniProt Q99715) | inactive: -0.139
CPNE8 (UniProt Q86YQ8) | inactive: 0.042
COMMD6 isoform 2 (UniProt Q7Z4G1) | inactive: -0.143
COPS2 (UniProt P61201) | inactive: 0.021
CPLX1 (UniProt O14810) | inactive: 0.029
CORO6 isoform 5 (UniProt Q6QEF8) | inactive: 0.019
COX14 (UniProt Q96I36) | inactive: 0.075
COPS9 (UniProt Q8WXC6) | inactive: 0.062
COPS3 isoform 2 (UniProt Q9UNS2) | inactive: -0.11
CPA4 (UniProt Q9UI42) | inactive: 0.046
CNRIP1 (UniProt Q96F85) | inactive: 0

What follows are targets tested with CCn1c(C(=O)N(C2CC2)C2CC2)cc2c3c(ncn3C)c(Nc3cc(C)n(C)n3)nc21 in the same assay as above.
Summary of the method: as §1

Target | log2 fold change
COX10 (UniProt Q12887) | inactive: -0.099
COMMD3-BMI1 (UniProt R4GMX3) | inactive: -0.024
COX7B (UniProt P24311) | inactive: -0.051
COLEC11 isoform 10 (UniProt Q9BWP8) | inactive: 0.055
COL6A3 (UniProt P12111) | inactive: 0.086
CNNM2 (UniProt Q9H8M5) | inactive: -0.091
CPLANE2 (UniProt Q9BU20) | inactive: -0.016
CNIH4 (UniProt Q9P003) | inactive: -0.19
CPVL (UniProt Q9H3G5) | inactive: -0.035
COP1 (UniProt Q8NHY2) | inactive: 0.022
CNK3/IPCEF1 isoform 2 (UniProt G9CGD6) | inactive: 0.078
COMTD1 (UniProt Q86VU5) | inactive: -0.039
COL25A1 (UniProt Q9BXS0) | inactive: 0
CPTP (UniProt Q5TA50) | inactive: 0.025
COL14A1 (UniProt Q05707) | inactive: -0.207
CPNE2 (UniProt Q96FN4) | inactive: 0.047
CPEB3 (UniProt Q8NE35) | inactive: -0.057
CPNE8 (UniProt Q86YQ8) | inactive: 0
CNOT7 (UniProt H0YBT3) | inactive: -0.132
COMMD6 isoform 2 (UniProt Q7Z4G1) | inactive: 0.14
CPLX1 (UniProt O14810) | inactive: -0.074
COPS9 (UniProt Q8WXC6) | inactive: -0.197
CNTRL (UniProt Q7Z7A1) | inactive: -0.014
CPA4 (UniProt Q9UI42) | inactive: -0.062
CNRIP1 (UniProt Q96F85) | inactive: -0.174
CORO7 (UniProt P57737) | inactive: -0.025
COA5 (UniProt Q86WW8) | inactive: -0.07
